Test results from PMC10014109.
These are yes or no findings as the source states them, for the method shown. In cells and extracts the contact can be indirect. Some results given as binding are weak or reduced against the parent protein; the word gives no strength. For some of these results: Sequences can lack the tags named with a protein. Each block holds one binder with its values, some of them ahead of it.

What was measured:
[1] = target: T1, Flag-tagged SLAMF7 (signaling lymphocyte activation molecular family 7), full-length (mouse) (UniProt Q8BHK6); assay: co-IP; HEK 293T cells cotransfected with tagged murine constructs; IP from lysate with anti-Flag or anti-HA antibodies, immunoblot
T1 sequence: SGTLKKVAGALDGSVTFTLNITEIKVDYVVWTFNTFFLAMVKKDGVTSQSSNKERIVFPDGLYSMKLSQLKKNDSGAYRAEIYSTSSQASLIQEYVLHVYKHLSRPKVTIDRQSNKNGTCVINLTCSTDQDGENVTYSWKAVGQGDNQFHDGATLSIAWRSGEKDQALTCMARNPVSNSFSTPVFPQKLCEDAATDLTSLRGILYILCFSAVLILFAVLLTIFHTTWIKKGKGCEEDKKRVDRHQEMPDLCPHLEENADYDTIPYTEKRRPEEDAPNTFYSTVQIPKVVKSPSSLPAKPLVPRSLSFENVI

[2] = target: T2, SLAMF7, endogenous (mouse (endogenous in RAW264.7)) (UniProt Q8BHK6); assay: co-IP; endogenous proteins; lysate of RAW264.7 cells stimulated with LPS; IP with IgG or anti-SLAMF7, immunoblot with anti-TRAF6 or anti-SHIP1
T2 sequence: T1 sequence

binding [1]: binds
B1: HA-tagged SHIP1 (Src homology 2-containing inositol-5'-phosphatase 1), full-length (enzyme, UniProt Q9ES52 1-1191)
chain: MPAMVPGWNHGNITRSKAEELLSRAGKDGSFLVRASESIPRAYALCVLFRNCVYTYRILPNEDDKFTVQASEGVPMRFFTKLDQLIDFYKKENMGLVTHLQYPVPLEEEDAIDEAEEDTVESVMSPPELPPRNIPMSAGPSEAKDLPLATENPRAPEVTRLSLSETLFQRLQSMDTSGLPEEHLKAIQDYLSTQLLLDSDFLKTGSSNLPHLKKLMSLLCKELHGEVIRTLPSLESLQRLFDQQLSPGLRPRPQVPGEASPITMVAKLSQLTSLLSSIEDKVKSLLHEGSESTNRRSLIPPVTFEVKSESLGIPQKMHLKVDVESGKLIVKKSKDGSEDKFYSHKKILQLIKSQKFLNKLVILVETEKEKILRKEYVFADSKKREGFCQLLQQMKNKHSEQPEPDMITIFIGTWNMGNAPPPKKITSWFLSKGQGKTRDDSADYIPHDIYVIGTQEDPLGEKEWLELLRHSLQEVTSMTFKTVAIHTLWNIRIVVLAKPEHENRISHICTDNVKTGIANTLGNKGAVGVSFMFNGTSLGFVNSHLTSGSEKKLRRNQNYMNILRFLALGDKKLSPFNITHRFTHLFWLGDLNYRVELPTWEAEAIIQKIKQQQYSDLLAHDQLLLERKDQKVFLHFEEEEITFAPTYRFERLTRDKYAYTKQKATGMKYNLPSWCDRVLWKSYPLVHVVCQSYGSTSDIMTSDHSPVFATFEAGVTSQFVSKNGPGTVDSQGQIEFLACYATLKTKSQTKFYLEFHSSCLESFVKSQEGENEEGSEGELVVRFGETLPKLKPIISDPEYLLDQHILISIKSSDSDESYGEGCIALRLETTEAQHPIYTPLTHHGEMTGHFRGEIKLQTSQGKMREKLYDFVKTERDESSGMKCLKNLTSHDPMRQWEPSGRVPACGVSSLNEMINPNYIGMGPFGQPLHGKSTLSPDQQLTAWSYDQLPKDSSLGPGRGEGPPTPPSQPPLSPKKFSSSTANRGPCPRVQEARPGDLGKVEALLQEDLLLTKPEMFENPLYGSVSSFPKLVPRKEQESPKMLRKEPPPCPDPGISSPSIVLPKAQEVESVKGTSKQAPVPVLGPTPRIRSFTCSSSAEGRMTSGDKSQGKPKASASSQAPVPVKRPVKPSRSEMSQQTTPIPAPRPPLPVKSPAVLQLQHSKGRDYRDNTELPHHGKHRQEEGLLGRTAMQ

binding [2]: binds
B2: SHIP1, endogenous (enzyme, UniProt Q9ES52 1-1191)
chain: B1 chain

binding [2]: binds
B3: TRAF6, endogenous (protein, UniProt P70196 1-530)
chain: MSLLNCENSCGSSQSSSDCCAAMAASCSAAVKDDSVSGSASTGNLSSSFMEEIQGYDVEFDPPLESKYECPICLMALREAVQTPCGHRFCKACIIKSIRDAGHKCPVDNEILLENQLFPDNFAKREILSLTVKCPNKGCLQKMELRHLEDHQVHCEFALVNCPQCQRPFQKCQVNTHIIEDCPRRQVSCVNCAVSMAYEEKEIHDQSCPLANIICEYCGTILIREQMPNHYDLDCPTAPIPCTFSVFGCHEKMQRNHLARHLQENTQLHMRLLAQAVHNVNLALRPCDAASPSRGCRPEDPNYEETIKQLESRLVRQDHQIRELTAKMETQSMYVGELKRTIRTLEDKVAEMEAQQCNGIYIWKIGNFGMHLKSQEEERPVVIHSPGFYTGRPGYKLCMRLHLQLPTAQRCANYISLFVHTMQGEYDSHLPWPFQGTIRLTILDQSEALIRQNHEEVMDAKPELLAFQRPTIPRNPKGFGYVTFMHLEALRQGTFIKDDTLLVRCEVSTRFDMGGLRKEGFQPRSTDAGV

binding [1]: binds
B4: HA-tagged TRAF6 (TNF receptor-associated factor 6) (protein, UniProt P70196 1-530)
chain: B3 chain
